PubChem BioAssay AID504784 – Drosophila RNAi Screening Center, 2011

Screen: 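Search for regulators of lipid droplet storage in oleate-fed fly cells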 (primary screen)
System: Drosophila Kc167 embryonic cells
Knock-down reagent: long dsRNA against Drosophila genes, about 250 ng dsRNA per well
Timing: 4 days
Challenge: cells fed 400 µM oleic acid bound to BSA
Measurement: 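Microscope images give a droplet-to-nucleus area ratio, taken as log and converted to a screen-wide B-score; higher values mean greater lipid storage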
Direction: droplet/nuclear area B-score: higher = more stored lipid (overstorage)
In all, the deposit lists about 17,000 reagents; this is a random part of those that have a named target and a result. 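Each column is one replicate's B-score; the combined score over replicates was not deposited, so single values may mislead.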 A plus sign joins genes that one reagent is predicted to hit. Not all columns of the deposit are shown.

gene knocked down,DRSC id,"droplet/nuclear area B-score, replicate 1","droplet/nuclear area B-score, replicate 2"
CG15336 (GeneID 31742),DRSC18019,-0.295,0.418
fz (GeneID 45307),DRSC11348,-0.587,-0.025
dsx-c73A (GeneID 39831),DRSC09435,-1.38,0.3
dsx-c73A (GeneID 39831),DRSC09914,-0.478,0.215
dsx-c73A (GeneID 39831),DRSC10429,0.87,0.359
CG14810 (GeneID 31131),DRSC17693,,-0.113
CG14810 (GeneID 31131),DRSC17961,0.662,0.21
CG9933 (GeneID 34700),DRSC03276,0.22,2.16
Phs (GeneID 39697),DRSC10827,-1.02,0.796
CG42355 (GeneID 317969),DRSC07967,-0.158,2.38
CG14370 (GeneID 41659),DRSC14832,0.124,0.219
Ir87a (GeneID 41654),DRSC14836,0.852,-0.49
puc (GeneID 40958),DRSC17034,0.0388,3.07
CG34229 (GeneID 5740848),DRSC06316,1.75,-0.429
CG8507 (GeneID 41205),DRSC16435,0.0527,0.808
CG14777 (GeneID 31099),DRSC18563,-0.0129,-0.693
LanA (GeneID 38723),DRSC11207,0.809,-0.821
CG11755 (GeneID 41031),DRSC14374,0.108,0.234
CG15784 (GeneID 31461),DRSC18090,-1.82,-3.02
Rab39 (GeneID 31684),DRSC17827,-0.308,1.2
CG13603 (GeneID 42838),DRSC14606,-2.95,2.68
RpS28a (GeneID 43564),DRSC15064,0.81,-0.0273
Boh2 (GeneID 34559),DRSC02777,-1.71,-0.0417
Slip1 (GeneID 43809),DRSC17146,0.322,-0.00339
CG5592 (GeneID 38662),DRSC10524,0.94,2.46
Or85d (GeneID 41011),DRSC16767,-0.205,0.0419
CG4409 (GeneID 36840),DRSC06869,-1.55,-0.754
CG1698 (GeneID 36006),DRSC06640,0.335,-0.256
Cap-D3 (GeneID 33778),DRSC02349,-1.08,0.0645
CG13558 (GeneID 37719),DRSC04196,0.73,-1.96
RpL41 (GeneID 251466),DRSC22958,1.06,1.25
CG11269 (GeneID 37527),DRSC04094,0.616,-0.0753
Snap24 (GeneID 41193),DRSC16864,-0.179,0.127
Oamb (GeneID 43982),DRSC13433,-1.1,0.206
Oamb (GeneID 43982),DRSC15120,-0.387,-1.2
Oamb (GeneID 43982),DRSC16763,-0.395,-1.83
CG8064 (GeneID 42196),DRSC16373,6.64,1.26
stwl (GeneID 39581),DRSC11400,4.27,-0.384
Mur89F (GeneID 42080),DRSC15544,-0.0053,-0.0754
icln (GeneID 36997),DRSC07630,-0.438,-0.143
roq (GeneID 39818),DRSC10227,1.01,0.443
CG15650 (GeneID 37373),DRSC04241,1.34,-0.473
CG8834 (GeneID 36356),DRSC07283,0.377,1.67
Bmcp (GeneID 39322),DRSC10808,0.65,-0.00575
CG14958 (GeneID 38387),DRSC08417,0.158,0.428
CG12693 (GeneID 31375),DRSC17882,0.0271,-0.723
Cyp313a3 (GeneID 41488),DRSC16626,0.0967,-0.277
Tpi (GeneID 43582),DRSC16888,-1.09,-0.681
CG13305 (GeneID 38992),DRSC09975,0.153,3.06
CG15742 (GeneID 32276),DRSC19708,-0.598,-0.808
snRNA:U1:95Cc + snRNA:U1:95Cb,DRSC13641,-0.372,2.47
TM9SF4 (GeneID 34778),DRSC01888,0.577,-0.151
TM9SF4 (GeneID 34778),DRSC02537,-0.0763,0.491
CG14820 (GeneID 38754),DRSC10191,-0.412,0.936
CG31798 (GeneID 318946),DRSC01702,-1.09,1.07
Ebp (GeneID 38009),DRSC04048,0.905,-0.00794
sro (GeneID 43512),DRSC14469,0.282,-0.279
CG2680 (GeneID 31257),DRSC18466,0.0744,-0.612
Rhp (GeneID 32531),DRSC20279,0.461,0.0912
CG1545 (GeneID 32036),DRSC21532,2.68,2.2
mRpL33 (GeneID 50381),DRSC18319,1.3,-0.0372
CG16772 (GeneID 35281),DRSC02516,-1.75,-0.949
hng2 (GeneID 41056),DRSC16412,0.00126,-0.126
CG14416 (GeneID 31273),DRSC18639,-1.66,0.271
CG14147 (GeneID 39227),DRSC10149,0.971,0.858
CG12091 (GeneID 38177),DRSC08251,0.38,0.454
CG32425 (GeneID 40273),DRSC11739,-1.61,-2.46
CG32425 (GeneID 40273),DRSC11764,1.91,-0.33
TFAM (GeneID 42433),DRSC15552,0.0432,0.427
AMPdeam (GeneID 32352),DRSC19366,1.02,0.312
AMPdeam (GeneID 32352),DRSC19368,-0.303,1.1
AMPdeam (GeneID 32352),DRSC19727,-4.49,3.18
sl (GeneID 32601),DRSC20377,1.21,-0.0386
sl (GeneID 32601),DRSC21782,1.22,0.212
twe (GeneID 34954),DRSC03628,-1.71,-1.18
tn (GeneID 37190),DRSC05768,-0.146,-0.276
tn (GeneID 37190),DRSC06532,0.238,1.21
CG14196 (GeneID 32915),DRSC19551,,1
FRG1 (GeneID 40228),DRSC10648,-0.517,-1.33
CG9121 (GeneID 33732),DRSC03142,0.787,0.977
Cenp-C (GeneID 41014),DRSC14371,2.86,1.13
Ae2 (GeneID 39147),DRSC08997,0.147,1.03
Ae2 (GeneID 39147),DRSC10969,0.331,
